# Measurements from PubChem BioAssay AID504444 (National Center for Advancing Translational Sciences (NCATS), 2011).
# Screen size: about 360,000 compounds; about 7,500 (2.1%) were called active. This list was built around the results that the source calls inconclusive (neither active nor inactive); the mix of calls is not that of the screen. Calls follow the shape of the dose curve; as a rule, active = well fitted inhibition curve with a large enough effect; inconclusive = small, poorly fitted or top-dose-only effect, or effect the other way; inactive = flat fitted curve, though single readings scatter. Potencies beside an inconclusive call are fits to weak or partial responses and may not hold up.
# Test: Nrf2 qHTS screen for inhibitors; also: nearly all actives have a fitted effect of over 60% in size
# Conditions: A549 ARE-Fluc reporter, luciferase luminescence, 18-24 h; series mostly up to 46 µM
# In short: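 In this cell-based qHTS, ARE-driven firefly luciferase in A549 cells reports Nrf2 activity; the luminescent signal after BugLite lysis is the measured value, with a prior CellTiter-Fluor read for cell health.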
# Potency is read from the fitted curve at half-maximal effect.
row,SMILES,Potency
1,COCCNc1nc2c(c(=O)n(C)c(=O)n2C)n1Cc1cccc(C(F)(F)F)c1,active: 16.4 µM
2,O=c1cc(CSc2ccc([N+](=O)[O-])cc2)nc2sccn12,"inconclusive: 5.17 µM [activator, full curve]"
3,O=C(Oc1ccc([N+](=O)[O-])cc1)c1ccc2ccccc2n1,"inconclusive: 23.1 µM [activator, single point]"
4,CC1CC(C)CN(C(=O)c2ccncc2)C1 (stereo not given),inactive
5,COc1cccc(C(=O)NCC(=O)OCc2cc(=O)n3ccsc3n2)c1,"inconclusive: 4.11 µM [activator, full curve]"
6,CCc1ccc(-n2c(=O)c3cccnc3n2CC(=O)Nc2cc(OC)ccc2OC)cc1,inactive
7,Cc1cc(C(=O)COC(=O)c2n[nH]c3ccccc23)c(C)n1C,"inconclusive: 7.31 µM [activator, partial curve]"
8,Cc1ccc(C(=O)Nc2nc(-c3nnn(-c4cccc(C(F)(F)F)c4)c3C)ns2)cc1,inactive
9,COc1ccccc1-n1cc2ccc([N+](=O)[O-])cc2n1,"inconclusive: 13 µM [activator, partial curve, poor fit]"
10,CC(Cc1cccs1)NC(=S)Nc1ccc(Cl)cc1 (stereo not given),active: 18.4 µM
11,COc1ccc(C(=O)Nc2ccc(S(=O)(=O)Nc3cc(C)nc(C)n3)cc2)c(OC)c1,"inconclusive: 18.4 µM [falling, partial curve]"
12,CC(=O)N1CCc2cc(S(=O)(=O)N3CC(C)CC(C)C3)ccc21 (stereo not given),"inconclusive: 7.31 µM [falling, partial curve, poor fit]"
13,O=C(N/N=C/c1ccccn1)c1ccc(S(=O)(=O)N2CCCCCC2)cc1,inactive
14,O=C(N/N=C/c1ccc(-c2ccc(Br)cc2)o1)c1ccc2c(c1)OCO2,"inconclusive: 2.91 µM [activator, full curve, poor fit]"
15,O=C(O)CCC(NC(=O)c1ccc(Cl)cc1)C(=O)O (stereo not given),inactive
16,O=C(c1ccccc1)N1CCCC(c2nc3c(nnn3Cc3ccccc3)c(=O)[nH]2)C1 (stereo not given),"inconclusive: 29.1 µM [falling, single point]"
17,Cc1ccc(S(=O)(=O)N(C)c2ccc(C(=O)NCCc3ccccc3)cc2)cc1,"inconclusive: 6.51 µM [activator, partial curve]"
18,Cc1ccc(NC(=O)Cn2cnc3cc([N+](=O)[O-])ccc3c2=O)c(Cl)c1,"inconclusive: 23.1 µM [falling, partial curve, poor fit]"
19,COc1cc(NS(=O)(=O)c2ccc(C)cc2)c2ncccc2c1,"inconclusive: 4.11 µM [falling, partial curve, poor fit]"
20,Nc1ccc(Nc2ccc([N+](=O)[O-])cc2[N+](=O)[O-])cc1,"inconclusive: 32.6 µM [falling, partial curve, poor fit]"
21,COc1ccccc1-c1cccc([C@@H]2C[C@H]3[C@H](CON3C)CN2C(=O)CCc2ccccc2)c1,inactive
22,CC(=O)CSc1nc2ccccc2o1,"inconclusive: 14.6 µM [activator, partial curve, poor fit]"

row,SMILES,Potency
1,O=C(Nc1ccc(Oc2cccnc2)cc1)C1CCN(Cc2cc(Cl)ccc2O)CC1,"inconclusive: 16.4 µM [falling, single point]"
2,O=C(O)CCCC(=O)Nc1ccc(S(=O)(=O)Nc2nccs2)cc1,"inconclusive: 6.51 µM [activator, single point]"
3,CN1CCN(c2nc(-c3ccc(C(C)(C)C)cc3)nc3ccccc23)CC1,"inconclusive: 5.17 µM [activator, full curve]"
4,COc1ccc(-c2nn(-c3ccccc3)cc2/C=N/NC(=O)c2ccc(Br)o2)cc1,"inconclusive: 16.4 µM [falling, single point]"
5,Cn1c(N)c(C(=O)COC(=O)CC2CC3CCC2C3)c(=O)n(C)c1=O (stereo not given),"inconclusive: 14.6 µM [falling, partial curve, poor fit]"
6,O=c1cc(-c2ccccc2Cl)oc2c(Br)ccc(O)c12,"inconclusive: 9.2 µM [activator, partial curve]"
7,CCOC(=O)c1nc(Nc2ccc(C(=O)OC)cc2)c2ccccc2n1,"inconclusive: 13 µM [falling, partial curve, poor fit]"
8,Cc1nc2ccc(NS(=O)(=O)c3ccc(F)cc3)cc2s1,"inconclusive: 16.4 µM [falling, single point]"
9,CC1CCCC(NC(=O)c2cc(S(=O)(=O)N3CCCCC3)ccc2Cl)C1C (stereo not given),inactive
10,Cc1ccc(NS(=O)(=O)c2ccc(C(=O)NCCCN3CCCC3=O)cc2)cc1C,"inconclusive: 9.2 µM [falling, partial curve, poor fit]"
11,COc1cc(OC)c(NC(=O)c2c(C)oc3nc(C)nc(N4CCOCC4)c23)cc1Cl,"inconclusive: 11.6 µM [activator, partial curve, poor fit]"
12,CC(C)=CCc1c(O)cc(O)c2c(=O)c3c(CC=C(C)C)c(O)ccc3oc12,"inconclusive: 32.6 µM [falling, single point]"
13,CCCCN(C)C(=O)Cn1nc(-c2ccc(Cl)cc2)ccc1=O,"inconclusive: 0.184 µM [falling, full curve, poor fit]"
14,Cc1ccc(C)c(S(=O)(=O)Nc2ccccc2C(=O)Nc2ccc(S(=O)(=O)Nc3ncccn3)cc2)c1,inactive
15,Cc1ccc2c(c1)S/C(=C\c1cccc[n+]1C)N2CCO,active: 4.61 µM
16,Cc1cc(N=Nc2ccccc2)cc(C)c1NC(=O)C(F)(F)F,"inconclusive: 1.84 µM [activator, partial curve, poor fit]"
17,Cc1cccc(CNC(=O)c2ccc(C)c(-n3c(C)nc4cccnc43)c2)c1,inactive
18,Cc1ccsc1C(=O)NNC(=O)c1csc(N2CCOCC2)n1,"inconclusive: 16.4 µM [activator, partial curve, poor fit]"
19,CC1(C)OC(=O)N(c2ccccc2)C12C=Cc1cc(Br)ccc1O2 (stereo not given),"inconclusive: 23.1 µM [falling, single point]"
20,O=C(NCc1ccccc1Cl)c1ccc(Cn2c(=O)c3cccn3c3cccnc32)cc1,inactive
21,Cc1cccc(-c2nc(CN3CCCC(C(=O)NC4CCCCCC4)C3)c(C)o2)c1 (stereo not given),"inconclusive: 29.1 µM [falling, single point]"
22,C/C(=N\NC(=O)c1cccc(S(=O)(=O)N2CCOCC2)c1)c1ccc(C#N)cc1,"inconclusive: 32.6 µM [falling, single point]"

# Retrieved by compound from the list above, five records:
row,SMILES,Potency
6,CCc1ccc(-n2c(=O)c3cccnc3n2CC(=O)Nc2cc(OC)ccc2OC)cc1,inactive
16,O=C(c1ccccc1)N1CCCC(c2nc3c(nnn3Cc3ccccc3)c(=O)[nH]2)C1 (stereo not given),"inconclusive: 29.1 µM [falling, single point]"
10,CC(Cc1cccs1)NC(=S)Nc1ccc(Cl)cc1 (stereo not given),active: 18.4 µM
17,Cc1ccc(S(=O)(=O)N(C)c2ccc(C(=O)NCCc3ccccc3)cc2)cc1,"inconclusive: 6.51 µM [activator, partial curve]"
2,O=C(O)CCCC(=O)Nc1ccc(S(=O)(=O)Nc2nccs2)cc1,"inconclusive: 6.51 µM [activator, single point]"

# Next part.

row,SMILES,Potency
1,Cc1ccc(NC(=O)CCc2ccc(C)o2)c(Br)c1,"inconclusive: 23.1 µM [activator, single point]"
2,COc1ccc(C(=O)NC2CC(C)(C)Cc3c2cnn3-c2ccccc2)c(OC)c1 (stereo not given),active: 18.4 µM
3,COC(=O)c1sccc1NC(=O)c1ccco1,inactive
4,CCN(CC)S(=O)(=O)c1ccc2[nH]cc(C(=O)NCCc3ccccc3)c(=O)c2c1,"inconclusive: 23.1 µM [falling, partial curve, poor fit]"
5,CCN(CC)c1ccc(NC(=O)C2CCCN(S(=O)(=O)c3cccnc3)C2)c(C)c1 (stereo not given),"inconclusive: 29.1 µM [falling, partial curve, poor fit]"
6,CN(Cc1ccccc1)C(=O)C1CCC(CNS(=O)(=O)c2ccc3c(c2)CCCC(=O)N3)CC1 (stereo not given),"inconclusive: 29.1 µM [falling, single point]"
7,CCn1c2ccccc2c2cc(NC(=O)CSc3nnc(-c4cccc(OC)c4)n3N)ccc21,"inconclusive: 32.6 µM [falling, single point]"
8,Cc1ccccc1N(CC(=O)N/N=C/c1ccc(Cl)cc1)C(=O)c1ccccc1,active: 20.6 µM
9,Cc1nc(Sc2ccc(Br)cc2)c(C#N)c(C)c1[N+](=O)[O-],"inconclusive: 29.1 µM [falling, single point]"
10,CC1(C)CC(=O)C2=C(C1)N1CCCCC1CC2=O (stereo not given),inactive
11,O=C(CCCN1C(=O)/C(=C\c2cccs2)SC1=S)Nc1ccc(O)cc1C(=O)O,"inconclusive: 25.9 µM [activator, single point]"
12,CS(=O)(=O)c1ccc2nc(NC(=O)c3ccccc3Br)sc2c1,"inconclusive: 29.1 µM [activator, single point]"
13,CCNC(=O)COc1ccc(OCc2ccccc2)cc1,"inconclusive: 1.46 µM [activator, full curve]"
14,COc1cccc(C(=O)N(C)CC2CCN(CCc3cccc(C(F)(F)F)c3)CC2)c1,"inconclusive: 6.51 µM [activator, single point]"
15,CC(NCc1ccc(S(N)(=O)=O)cc1)C(=O)Nc1ccc([N+](=O)[O-])cc1Cl (stereo not given),"inconclusive: 20.6 µM [falling, single point]"
16,COCCCNC(=O)c1cnn(-c2ccc(F)cc2F)c1C1CCNCC1,"inconclusive: 20.6 µM [activator, single point]"
17,Cc1ccc(-c2nc3sc(C(N)=O)c(N)c3c3c2CCCC3)cc1,"inconclusive: 25.9 µM [falling, single point]"
18,Nc1ccc2nc(-c3ccc(O)cc3)sc2c1,"inconclusive: 20.6 µM [falling, single point]"
19,C[C@]12c3[nH]c4cc(-c5ccco5)ccc4c3CCN1C(=O)[C@@H](CC(=O)NCc1ccco1)C[C@@H]2C(=O)N1CCCCC1,"inconclusive: 20.6 µM [falling, single point]"
20,COc1ccc(SCCN2CCN(CCc3ccccc3)CCC2=O)cc1,inactive
21,CCCc1cc(=O)[nH]c(SCC(=O)N2CCN(S(=O)(=O)c3ccc(Cl)cc3)CC2)n1,"inconclusive: 3.66 µM [falling, single point]"
